Test results as given in patent US11951113B2, “Synergestic combination composition comprising a steroidal saponin, a first polyphenolic compound and a second polyphenolic compound” (NEURALIA, priority 2018, dated 2024).
The name of at least one read-out is uncertain.

Tested on: primary cortical neurons injured by glutamate
Assay: Neuroprotection of primary cortical neurons injured by glutamate: neuron survival and neurite network (MAP-2 staining)
Assay type: cell-based, rat
Conditions: glutamate 40 μM, 20 min
Description: Rat cortical neurons were cultured as described by Singer et al., (J. Neuroscience, (1999), 19(7), 2455-2463) and Callizot et al. (J. Neurosc., (2013), Res. 91(5), 706-716).
Pregnant females (Wistar; JanvierLabs, St Berthevin, France) at 15 days of gestation were killed by cervical dislocation. Foetuses were collected and immediately placed in ice-cold L15 Leibovitz medium (Pan Biotech, Aidenbach, Germany) with a 2% penicillin (10,000 U/ml) and streptomycin (10 mg/ml) solution (PS; Pan Biotech, Aidenbach, Germany) and 1% bovine serum albumin (BSA; Pan Biotech, Aidenbach, Germany). Cortex was treated for 20 min at 37° C. with a trypsin-EDTA (Pan Biotech, Aidenbach, Germany) solution at a final concentration of 0.05% trypsin and 0.02% EDTA. The dissociation was stopped by addition of Dulbecco's modified Eagle's medium (DMEM) with 4.5 g/liter of glucose (Pan Biotech, Aidenbach, Germany), containing DNAse I grade II (final concentration 0.5 mg/ml; Pan Biotech, Germany) and 10% fetal calf serum (FCS; Invitrogen, Cergy Pointoise, France). […] Viable cells were counted in a Neubauer cytometer, using the trypan blue exclusion test. […]
For each condition 6 wells were assessed, 30 pictures per well were taken using MetaXpress (molecular device) with 20× magnification (30 pictures at X20 representing ˜80% of the total well surface), to assess neurite network (MAP-2 staining). Analysis of picture was done using MetaXpress custum module editor software (molecular device), the total neurite length per picture was recorded). A mean neurite length of the ten pictures was automatically calculated per well, then one data was provided per well (total of 6 raw data were provided per condition).
For each condition 6 wells were assessed, 30 pictures per well were taken using MetaXpress (molecular device) with 20× magnification to assess cell bodies (MAP-2 staining). Analysis of picture was done using MetaXpress custum module editor software (molecular device), the number of neurons per picture was recorded. […]
All values were expressed as mean+/−s.e.mean. […]

Molecule | neuron survival (% of survival) (6.3 nM-630 nM) [%] | neuron survival (% of survival) (1 nM-1 μM) [%] | neuron survival (% of survival) (500 nM-5 μM) [%]
C[C@@H]1CC[C@@]2(OC1)O[C@H]1C[C@H]3[C@@H]4CC=C5C[C@@H](O[C@@H]6O[C@H](CO)[C@@H](O[C@@H]7O[C@@H](C)[C@H](O)[C@@H](O)[C@H]7O)[C@H](O)[C@H]6O[C@@H]6O[C@@H](C)[C@H](O)[C@@H](O)[C@H]6O)CC[C@]5(C)[C@H]4CC[C@]3(C)[C@H]1[C@@H]2C [DIOS, dioscin] | ~80 | – | –
catechin | – | ~80 | ~80
